The data set can be described thus: BAP in the drinking water in CD-1 mice: body weight and water intake. Type of data set: in vivo. The method, then: All protocols using mice were approved by the University Animal Care Committee of the University of Toronto and were performed in accordance with the Canadian Council on Animal Care. Animal experiments were performed in three separate animal facilities: Medical Sciences Building (MSB), Centre for Cellular and Biomolecular Research (CCBR) and the Biological Sciences Facility (BSF) due to ongoing construction and housing changes. Facilities and dates are indicated in each experimental cohort. N6-benzylaminopurine (BAP; also called N6-benzyladenine) was obtained from Sigma (B3408, cell culture grade in powder form; CAS number 1214-39-7). Male and female CD-1 mice aged 6-7 weeks were acquired from Charles Rivers and acclimated on a chow diet for one week prior to experimentation. Mice were then weight-matched and placed on either a 60% high fat diet (HFD) or sucrose-matched control diet for 4 weeks (from Research Diets: 60% HFD D12492 and the sucrose-matched control diet […]). After 3 weeks on the diet, mice were acclimated for one week to the drinking apparatus, a 50 mL canonical tube with a drinking tube. After 4 weeks on the diet, the mice were again weight-matched and randomly assigned to either the control or BAP group. […] RNA was isolated from the collected hypothalamic and used to quantify gene expression via qRT-PCR.

With `c1ccc(CNc2ncnc3nc[nH]c23)cc1` [BAP, N6-benzylaminopurine], the “water (solution) intake vs control” value (female CD-1, regardless of diet, 10 mM BAP in drinking water with erythritol) is recorded as “drink significantly less”. In addition, the “water intake vs control” value (male CD-1, regardless of diet, 10 mM BAP in drinking water with 2% erythritol) is given as “drink less water”.

The record behind these values is patent US20260034135A1, “USE OF N6-BENZYLAMINOPURINE AS AN APPETITE SUPPRESSANT” (THE GOVERNING COUNCIL OF THE UNIVERSITY OF TORONTO, priority 2022, published 2026).
